Measurements: paper PMC8628632
Results are given in words; binding and its absence hold for the method and conditions named. Binding seen in cells or lysates may run through a third protein. Some entries that bind do so weakly or less than the wild type.

Protein sequences, listed by entry. Tags and fused reporters are not part of them. Lines headed by an entry give the natural chain unless they say otherwise; changes in a name come on top.
UniProt P56696: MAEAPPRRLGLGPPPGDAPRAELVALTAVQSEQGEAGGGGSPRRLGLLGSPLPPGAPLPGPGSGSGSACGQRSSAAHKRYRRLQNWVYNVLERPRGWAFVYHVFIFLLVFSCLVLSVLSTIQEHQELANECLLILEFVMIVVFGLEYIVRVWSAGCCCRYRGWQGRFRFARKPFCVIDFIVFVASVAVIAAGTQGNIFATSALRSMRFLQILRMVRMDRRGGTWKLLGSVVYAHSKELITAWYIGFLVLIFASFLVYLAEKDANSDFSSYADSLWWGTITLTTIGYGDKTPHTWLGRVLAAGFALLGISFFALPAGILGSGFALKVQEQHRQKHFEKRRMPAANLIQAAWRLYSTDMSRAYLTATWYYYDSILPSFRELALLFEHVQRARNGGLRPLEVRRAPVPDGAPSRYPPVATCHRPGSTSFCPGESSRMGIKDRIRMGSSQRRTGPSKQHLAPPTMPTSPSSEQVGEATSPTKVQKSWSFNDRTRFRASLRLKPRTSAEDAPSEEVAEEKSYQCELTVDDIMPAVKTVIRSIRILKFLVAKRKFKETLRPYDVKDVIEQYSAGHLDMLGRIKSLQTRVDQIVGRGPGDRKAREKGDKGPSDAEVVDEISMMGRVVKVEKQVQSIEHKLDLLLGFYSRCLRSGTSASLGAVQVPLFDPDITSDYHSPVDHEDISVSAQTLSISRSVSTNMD

Molecular target: RFP-tagged Kv7.4^WT (human Kv7.4, encoded by KCNQ4) (human) (UniProt P56696)
Test: co-IP; RFP-Kv7.4^WT captured on anti-RFP beads (RFP-selector) from lysates of HEK293T cells co-expressing a GFP-tagged Kv7.4 construct; lysis in 150 mM NaCl, 20 mM DDM, 1 mM EDTA, 1 mM DTT, 20 mM HEPES pH 7.5; 30 min at 4°C; washed with 2 mM DDM buffer; binding read as green fluorescence of the beads by microscopy; flow-through checked with GFP-selector

binding, binds:
RFP-tagged Kv7.4^WT (human Kv7.4, encoded by KCNQ4) (from UniProt P56696 1-695)
GFP-tagged Kv7.4^G285S (from UniProt P56696 1-695)
GFP-tagged Kv7.4^P291L (from UniProt P56696 1-695)
